In publication PMC7693736:
These are yes or no findings as the source states them, for the method shown. In cells and extracts the contact can be indirect. Binding can be weak; no strength is given. Tags and fused reporters may be left off the sequences shown.

Target: Myc-SIRT3
Experiment: co-IP; Flag-tagged TLR9 and its fragments coexpressed in 293 cells with Myc-Sirt3; anti-Myc immunoprecipitates analysed by anti-Flag immunoblotting

B1: Flag-tagged TLR9 with only TIR domain (TIR) (domain or fragment, UniProt Q9NR96 868-1013)
chain: LPYDAFVVFDKTQSAVADWVYNELRGQLEECRGRWALRLCLEERDWLPGKTLFENLWASVYGSRKTLFVLAHTDRVSGLLRASFLLAQQRLLEDRKDVVVLVILSPDGRRSRYVRLRQRLCRQSVLLWPHQPSGQRSFWAQLGMAL
With B1 the binding was “binds”.
